Test results taken from US20060015973.
For some of these results: Where cells or extracts were used, other partners may take part.

Protein sequences, listed by entry. Tags and fused reporters are not part of them. Lines headed by an entry give the natural chain unless they say otherwise; changes in a name come on top.
UniProt O82132: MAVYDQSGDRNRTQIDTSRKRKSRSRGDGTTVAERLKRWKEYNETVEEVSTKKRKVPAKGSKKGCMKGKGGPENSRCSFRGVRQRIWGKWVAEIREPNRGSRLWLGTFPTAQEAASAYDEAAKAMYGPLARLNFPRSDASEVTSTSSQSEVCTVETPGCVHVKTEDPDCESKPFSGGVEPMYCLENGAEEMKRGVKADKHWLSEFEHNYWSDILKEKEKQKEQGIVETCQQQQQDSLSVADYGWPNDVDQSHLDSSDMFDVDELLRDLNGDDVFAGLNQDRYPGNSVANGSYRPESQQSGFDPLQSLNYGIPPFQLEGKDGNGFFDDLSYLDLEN
UniProt Q9M0L0: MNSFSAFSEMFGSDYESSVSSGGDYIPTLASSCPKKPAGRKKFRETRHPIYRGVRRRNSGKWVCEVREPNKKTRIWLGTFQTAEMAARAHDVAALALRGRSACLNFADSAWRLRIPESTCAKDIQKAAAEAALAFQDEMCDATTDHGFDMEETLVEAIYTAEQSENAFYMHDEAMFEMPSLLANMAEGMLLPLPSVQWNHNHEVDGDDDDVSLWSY

Experiments:
[1] = biological target: DREB2A (Arabidopsis thaliana) (UniProt O82132); test: activity in cells; details: GUS transactivation vs empty effector, T87 protoplasts; DRE reporter built as in cited Liu et al 1998; protein in cells
[2] = biological target: DREB1A (Arabidopsis thaliana) (UniProt Q9M0L0); test: activity in cells; details: GUS activity increased in Arabidopsis leaf protoplasts; protein in cells
[3] = biological target: DREB2A (Arabidopsis thaliana) (UniProt O82132); test: one hybrid; details: GAL4 AD-cDNA fusion in yeast YM4271; protein in cells
[4] = biological target: DREB1A (Arabidopsis thaliana) (UniProt Q9M0L0); test: one hybrid; details: GAL4 AD-cDNA fusion in yeast YM4271; protein in cells

What does the source list for “CAGTTTGAAAGAAAAGGGAAAAAAAGAAAAAATAAATAAAAGATATACTACCGACATGAGTTCCAAAAAGC (double strand)”?
activity on this sequence [1]: active; activity on this sequence [2]: active; binding result [3]: binds; binding result [4]: binds
